Assay results reported in PubChem BioAssay AID1487 (National Center for Advancing Translational Sciences (NCATS), 2009).
This is one part of the list. The main result of the screen is listed elsewhere. These columns were measured beside it and carry no call. The list favours compounds with an active or inconclusive main result. Potencies come from curve fits of mixed quality, noted in brackets.

Test: qHTS Assay for Modulators of Lamin A Splicing
Conditions: HeLa LMNA splicing GFP/RFP minigene ratio, 48 h
Outline: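 S3 HeLa stable clones carrying a lamin A-EGFP splicing minigene plus DsRed2 were seeded at 600 cells/well in Opti-MEM with 2% FBS, pin-dosed and incubated 48 h at 37°C. Acumen cytometry (488 nm) gave the GFP/RFP total-intensity ratio.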

[1] = measured here: RFP viability control channel
[2] = measured here: GFP splicing reporter channel

Compound | AC50 [1] | AC50 [2]
COc1ccccc1CNC(=O)CSc1nnc2ccc(-c3cccnc3)nn12 | 4.47 µM [falling, partial curve] | –
Cc1cc(Cl)c(S(=O)(=O)Nc2ccc3c(c2)OCCO3)cc1OCC(=O)NC1CCCCC1 | 31.6 µM [rising, single point] | –
COc1ccc(NC(=O)c2ccc(-c3ccccc3C(F)(F)F)o2)cc1 | 17.8 µM [rising, partial curve] | 12.6 µM [rising, single point]
COC(=O)c1ccc(-c2noc(CN(Cc3ccncc3)CC3CCCO3)n2)cc1 (stereo not given) | 6.31 µM [falling, partial curve, poor fit] | 35.5 µM [falling, single point]
COc1ccc(S(=O)(=O)NCc2ccco2)c2ccccc12 | – | 7.94 µM [rising, partial curve]
COc1ccc(OCC(=O)Nn2c(-c3ccc(OC)cc3)nc3ccccc3c2=O)cc1 | 35.5 µM [rising, single point] | 31.6 µM [rising, single point]
CS(=O)(=O)N1CCN(c2ccc(NC(=S)NC(=O)c3ccc4c(c3)OCO4)cc2)CC1 | – | 0.141 µM [falling, partial curve]
Cn1ccc2c(OCC(=O)NCc3ccccc3Cl)cccc2c1=O | 35.5 µM [rising, partial curve, poor fit] | –
CC(C(N)=O)N1C(=O)c2cccc3cccc1c23 (stereo not given) | 8.91 µM [falling, partial curve, poor fit] | –
Cc1ccc2nc(Cl)c(CN(Cc3cccs3)C(=O)C3CC3)cc2c1 | 35.5 µM [rising, single point] | –
CCOc1ccc(C(=O)Nc2ccccc2C#N)cc1[N+](=O)[O-] | 10 µM [rising, single point] | –
CCc1ccc(NC(=O)C(=O)NCC(c2cccnc2)N2CCN(C)CC2)cc1 (stereo not given) | 28.2 µM [falling, partial curve] | 25.1 µM [falling, partial curve]
Cc1csc2nc(CNC(=O)c3cccc(C(F)(F)F)c3)cn12 | – | 35.5 µM [rising, single point]
O=C(COC(=O)c1cccc(C(F)(F)F)c1)NCc1ccccc1 | 0.00562 µM [falling, full curve, poor fit] | –
CCOC(=O)Nc1ccc2c(c1)Sc1ccccc1N2C(=O)CCN1CCOCC1 | 14.1 µM [rising, single point] | –
O=C(COc1ccc(Cl)cc1)N1CCN(c2ccc([N+](=O)[O-])c(N3CCOCC3)c2)CC1 | 35.5 µM [rising, single point] | –
CC(=O)C(Cc1ccc(Cl)nc1)(Cc1ccc(Cl)nc1)C(C)=O | – | 3.55 µM [rising, full curve]
CC(C)CNC(=O)c1ccccc1SCC(=O)NC12CC3CC(CC(C3)C1)C2 | 35.5 µM [rising, single point] | –
Cc1cccc(C(=O)NC(=S)Nc2ccc(S(=O)(=O)N3CCCCC3)cc2)c1 | 25.1 µM [rising, single point] | 11.2 µM [rising, single point]

Compound | AC50 [1] | AC50 [2]
Cc1ccc(-c2noc(CSc3nnc(-c4ccccc4)n3C)n2)cc1 | 35.5 µM [rising, single point] | –
CC1(C)SC2[C@@H](N=CN3CCCCCC3)C(=O)N2[C@H]1C(=O)O (stereo not given in full) | 0.00316 µM [falling, full curve] | 0.000891 µM [falling, full curve, poor fit]
O=C(COC(=O)CCc1c[nH]c2ccccc12)NCc1ccccc1 | 35.5 µM [rising, single point] | –
Cc1ccc(-c2nc(CS(=O)(=O)CC(=O)N3CC(C)CC(C)C3)c(C)o2)cc1 (stereo not given) | 35.5 µM [rising, single point] | 31.6 µM [rising, single point]
O=C(c1ccc(Cl)cc1)c1ccc(OCC(O)CN2CCOCC2)cc1 (stereo not given) | 20 µM [rising, single point] | –
Cc1cc(C)cc(-n2c(SCC(=O)NCC3CCCO3)nc3c([nH]c4ccccc43)c2=O)c1 (stereo not given) | 0.158 µM [falling, partial curve] | 3.16 µM [falling, partial curve]
Cc1cc(C)cc(N(C(=O)CNS(=O)(=O)c2ccccc2)C(C(=O)NCc2ccccc2)c2ccc(C)o2)c1 (stereo not given) | 14.1 µM [rising, single point] | –
Cn1cnc2c1c(=O)[nH]c(=O)n2C | – | 0.794 µM [rising, full curve, poor fit]
CCCC(=O)C1=C(c2ccc(C)c(C)c2)N(C(=O)CCC)n2c(CC)nnc2S1 | 12.6 µM [rising, partial curve] | –
Cc1ccc2nc(C)c(C(=O)N/N=C/c3cccs3)n2c1 | 20 µM [rising, single point] | –
O=C(Cn1cnc2c(cnn2-c2ccccc2)c1=O)N1CCOCC1 | 31.6 µM [rising, single point] | –
COc1cccc(N(C(=O)c2ccco2)c2nc(-c3sc(NC(=O)c4ccco4)nc3C)cs2)c1 | 25.1 µM [falling, partial curve] | –
CC(=O)Nc1ccc(S(=O)(=O)NCCSCc2ccco2)cc1 | 20 µM [rising, single point] | –
N#C/C(=C\c1c[nH]c2ccccc12)C(=O)c1ccc(O)c(O)c1 | – | 15.8 µM [falling, partial curve, poor fit]
Cc1ccccc1-c1nc(S(=O)(=O)c2ccc(Br)cc2)c(NCc2cccnc2)o1 | – | 35.5 µM [rising, single point]
CCn1cc(-c2ccnc3cc(C(=O)O)nn23)c(C)n1 | – | 3.55 µM [rising, partial curve]
Cc1cc(C)nc(SCc2csc(-c3ccccc3)n2)n1 | 35.5 µM [rising, partial curve, poor fit] | –
CC(=O)N1CCN(S(=O)(=O)c2cccc(C(=O)Nc3ccccc3N3CCOCC3)c2)CC1 | – | 0.0501 µM [falling, full curve, poor fit]

As a short view, some entries already given:
Compound | AC50 [1] | AC50 [2]
Cc1ccccc1-c1nc(S(=O)(=O)c2ccc(Br)cc2)c(NCc2cccnc2)o1 | – | 35.5 µM [rising, single point]
CCn1cc(-c2ccnc3cc(C(=O)O)nn23)c(C)n1 | – | 3.55 µM [rising, partial curve]
